{"sequences": {"note": "The chains behind the UniProt entries cited, without tags or fusion partners. Where a name states a change or a piece, a line headed by the entry shows the natural chain unless it says otherwise.", "UniProt L7N686": "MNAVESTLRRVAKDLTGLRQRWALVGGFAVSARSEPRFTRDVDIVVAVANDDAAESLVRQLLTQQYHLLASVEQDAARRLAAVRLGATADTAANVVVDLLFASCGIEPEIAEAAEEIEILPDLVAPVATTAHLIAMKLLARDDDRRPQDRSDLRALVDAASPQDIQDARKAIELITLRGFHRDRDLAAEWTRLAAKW"}, "source": "paper PMC11375011", "about": "“Inducible auto-phosphorylation regulates a widespread family of nucleotidyltransferase toxins” (Nature Communications, 2024)", "key": {"[1]": {"target": "MenT1 co-expressed with MenA1 (Mycobacterium tuberculosis) (UniProt L7N686)", "assay": "SEC"}, "[2]": {"target": "MenT1-p (MenT1 phosphorylated at T39) (Mycobacterium tuberculosis) (UniProt L7N686)", "assay": "SEC; both purified"}, "[3]": {"target": "MenT1 wild type (Mycobacterium tuberculosis) (UniProt L7N686)", "assay": "SEC; both purified"}}, "note": "These are yes or no findings as the source states them, for the method shown. Binding can be weak; no strength is given."}
{"binder": "MenA1 co-expressed with MenT1 (protein, UniProt I6X8G2 2-68) AVSVAAQKLRLALDMYEVGEQMQRMRLGRERPNADVVEIEAAIDAWRMTRPGAEEGDSAGPTSTRFT", "values": [{"measurement": "binding", "setting": "[1]", "value": "binds"}]}
{"binder": "MenA1 wild type (protein, UniProt I6X8G2 2-68) AVSVAAQKLRLALDMYEVGEQMQRMRLGRERPNADVVEIEAAIDAWRMTRPGAEEGDSAGPTSTRFT", "values": [{"measurement": "binding", "setting": "[2]", "value": "binds"}, {"measurement": "binding", "setting": "[3]", "value": "binds"}]}
